# Measured values from the supplement of paper PMC10849652.
# Chains of the proteins cited; added tags and fusions are not shown. Lines headed by an entry give the natural chain unless they say otherwise; changes in a name come on top.
# UniProt Q86TA1: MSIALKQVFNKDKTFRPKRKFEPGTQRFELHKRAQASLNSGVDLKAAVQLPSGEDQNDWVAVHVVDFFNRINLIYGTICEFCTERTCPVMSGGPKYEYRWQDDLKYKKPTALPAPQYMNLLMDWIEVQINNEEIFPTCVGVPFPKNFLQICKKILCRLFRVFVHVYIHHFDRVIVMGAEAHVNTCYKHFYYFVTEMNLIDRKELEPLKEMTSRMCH
# UniProt Q8N344: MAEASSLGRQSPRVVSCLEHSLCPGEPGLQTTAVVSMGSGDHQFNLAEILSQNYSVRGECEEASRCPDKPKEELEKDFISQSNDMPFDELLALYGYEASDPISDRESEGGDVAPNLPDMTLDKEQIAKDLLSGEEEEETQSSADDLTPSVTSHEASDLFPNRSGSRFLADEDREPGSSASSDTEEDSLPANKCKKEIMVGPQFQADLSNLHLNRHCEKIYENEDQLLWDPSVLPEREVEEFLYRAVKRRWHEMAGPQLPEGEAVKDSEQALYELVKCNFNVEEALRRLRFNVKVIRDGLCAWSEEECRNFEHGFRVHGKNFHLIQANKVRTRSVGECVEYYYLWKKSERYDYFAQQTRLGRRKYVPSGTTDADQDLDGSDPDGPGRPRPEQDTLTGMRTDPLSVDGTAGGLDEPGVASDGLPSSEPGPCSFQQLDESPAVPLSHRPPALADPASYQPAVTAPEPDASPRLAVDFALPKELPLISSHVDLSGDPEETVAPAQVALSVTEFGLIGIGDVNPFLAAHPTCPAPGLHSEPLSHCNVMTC
# UniProt Q9NPA3, whole entry, looked up: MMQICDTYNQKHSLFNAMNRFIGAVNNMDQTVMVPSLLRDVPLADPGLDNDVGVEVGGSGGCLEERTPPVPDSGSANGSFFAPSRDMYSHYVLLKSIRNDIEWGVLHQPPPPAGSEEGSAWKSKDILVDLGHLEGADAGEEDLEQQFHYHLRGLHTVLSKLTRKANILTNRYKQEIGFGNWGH
# UniProt Q9BVC4, whole entry, looked up: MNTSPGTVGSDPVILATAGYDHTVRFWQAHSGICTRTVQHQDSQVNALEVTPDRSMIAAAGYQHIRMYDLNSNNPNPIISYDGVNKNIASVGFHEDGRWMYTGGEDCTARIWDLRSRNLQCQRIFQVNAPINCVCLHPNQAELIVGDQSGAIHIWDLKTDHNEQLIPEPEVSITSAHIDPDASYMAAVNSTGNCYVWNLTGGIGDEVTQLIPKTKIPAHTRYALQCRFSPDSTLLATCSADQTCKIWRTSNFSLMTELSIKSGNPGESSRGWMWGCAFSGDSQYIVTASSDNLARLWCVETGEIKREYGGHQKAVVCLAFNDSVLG
# UniProt Q29983, whole entry, looked up: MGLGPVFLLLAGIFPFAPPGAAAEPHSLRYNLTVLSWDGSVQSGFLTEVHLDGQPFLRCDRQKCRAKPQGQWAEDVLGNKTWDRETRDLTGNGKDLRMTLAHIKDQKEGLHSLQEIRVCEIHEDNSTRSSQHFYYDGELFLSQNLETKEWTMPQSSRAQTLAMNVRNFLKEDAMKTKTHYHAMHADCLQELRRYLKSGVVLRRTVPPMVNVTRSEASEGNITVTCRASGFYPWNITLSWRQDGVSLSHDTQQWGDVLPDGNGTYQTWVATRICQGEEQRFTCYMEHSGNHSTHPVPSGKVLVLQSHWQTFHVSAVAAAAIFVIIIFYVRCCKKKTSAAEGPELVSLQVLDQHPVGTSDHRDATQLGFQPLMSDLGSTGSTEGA
# UniProt Q8IVH4: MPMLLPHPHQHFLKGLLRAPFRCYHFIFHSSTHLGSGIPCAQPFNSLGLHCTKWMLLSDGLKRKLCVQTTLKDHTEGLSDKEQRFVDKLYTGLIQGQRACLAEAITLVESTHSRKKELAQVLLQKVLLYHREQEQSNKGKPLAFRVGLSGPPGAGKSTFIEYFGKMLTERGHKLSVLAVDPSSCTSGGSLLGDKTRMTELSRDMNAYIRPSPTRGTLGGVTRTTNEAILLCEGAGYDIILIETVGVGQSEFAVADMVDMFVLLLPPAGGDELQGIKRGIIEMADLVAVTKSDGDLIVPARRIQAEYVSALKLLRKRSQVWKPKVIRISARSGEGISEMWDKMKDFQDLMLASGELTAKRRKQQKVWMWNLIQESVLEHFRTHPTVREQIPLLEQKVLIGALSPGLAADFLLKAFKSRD
# UniProt Q9BU76: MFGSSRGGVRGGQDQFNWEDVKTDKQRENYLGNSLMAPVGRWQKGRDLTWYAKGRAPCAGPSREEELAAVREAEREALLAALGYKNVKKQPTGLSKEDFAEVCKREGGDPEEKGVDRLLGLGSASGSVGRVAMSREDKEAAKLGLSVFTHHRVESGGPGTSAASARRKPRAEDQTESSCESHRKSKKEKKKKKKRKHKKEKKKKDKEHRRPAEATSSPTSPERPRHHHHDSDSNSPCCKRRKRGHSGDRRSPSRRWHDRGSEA
# UniProt Q9Y6X9: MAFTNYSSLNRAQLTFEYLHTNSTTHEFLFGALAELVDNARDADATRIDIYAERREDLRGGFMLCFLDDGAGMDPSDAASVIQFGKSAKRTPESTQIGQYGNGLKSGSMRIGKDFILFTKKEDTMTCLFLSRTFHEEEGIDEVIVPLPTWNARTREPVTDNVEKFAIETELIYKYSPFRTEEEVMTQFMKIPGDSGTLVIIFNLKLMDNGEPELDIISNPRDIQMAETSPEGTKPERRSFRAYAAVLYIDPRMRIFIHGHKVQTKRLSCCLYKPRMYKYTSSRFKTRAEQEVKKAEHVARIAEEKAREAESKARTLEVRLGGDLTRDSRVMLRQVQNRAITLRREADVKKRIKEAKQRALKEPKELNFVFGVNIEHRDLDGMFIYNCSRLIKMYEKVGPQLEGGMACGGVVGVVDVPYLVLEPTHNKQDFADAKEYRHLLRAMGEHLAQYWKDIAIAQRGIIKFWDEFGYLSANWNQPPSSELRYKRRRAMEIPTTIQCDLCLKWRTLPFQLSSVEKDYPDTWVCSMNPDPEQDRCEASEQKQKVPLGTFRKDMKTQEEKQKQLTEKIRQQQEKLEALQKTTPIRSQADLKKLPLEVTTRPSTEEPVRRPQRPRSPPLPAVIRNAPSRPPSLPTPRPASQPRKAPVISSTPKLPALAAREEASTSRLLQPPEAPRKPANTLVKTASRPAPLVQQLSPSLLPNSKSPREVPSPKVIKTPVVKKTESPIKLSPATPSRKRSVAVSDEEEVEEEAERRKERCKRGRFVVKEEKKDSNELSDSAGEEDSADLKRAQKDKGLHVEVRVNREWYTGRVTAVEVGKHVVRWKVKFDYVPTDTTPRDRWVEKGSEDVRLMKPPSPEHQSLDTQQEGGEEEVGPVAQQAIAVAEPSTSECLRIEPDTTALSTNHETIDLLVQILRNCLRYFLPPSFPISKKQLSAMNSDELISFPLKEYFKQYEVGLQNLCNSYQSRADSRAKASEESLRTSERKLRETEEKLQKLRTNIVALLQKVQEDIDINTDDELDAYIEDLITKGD
# UniProt P08473: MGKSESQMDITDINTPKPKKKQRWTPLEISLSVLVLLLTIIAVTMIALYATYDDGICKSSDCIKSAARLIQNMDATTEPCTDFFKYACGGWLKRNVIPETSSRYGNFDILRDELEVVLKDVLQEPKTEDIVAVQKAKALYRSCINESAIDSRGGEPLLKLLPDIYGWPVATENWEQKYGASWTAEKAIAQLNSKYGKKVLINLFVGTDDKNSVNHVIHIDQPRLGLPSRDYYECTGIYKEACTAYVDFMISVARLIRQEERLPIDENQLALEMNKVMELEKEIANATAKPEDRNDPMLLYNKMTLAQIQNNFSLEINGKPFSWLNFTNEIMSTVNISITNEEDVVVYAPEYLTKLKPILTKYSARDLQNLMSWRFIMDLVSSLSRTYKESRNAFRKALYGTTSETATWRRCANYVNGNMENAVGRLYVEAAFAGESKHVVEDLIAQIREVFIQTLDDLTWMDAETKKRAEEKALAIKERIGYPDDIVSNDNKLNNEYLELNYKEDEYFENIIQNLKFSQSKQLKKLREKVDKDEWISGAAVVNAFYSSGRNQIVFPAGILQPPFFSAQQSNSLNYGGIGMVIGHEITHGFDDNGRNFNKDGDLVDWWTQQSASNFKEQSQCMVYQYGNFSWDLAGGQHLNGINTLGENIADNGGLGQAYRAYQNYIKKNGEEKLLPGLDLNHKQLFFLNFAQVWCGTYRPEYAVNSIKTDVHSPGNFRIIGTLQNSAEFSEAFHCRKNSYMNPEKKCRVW
# UniProt O96033: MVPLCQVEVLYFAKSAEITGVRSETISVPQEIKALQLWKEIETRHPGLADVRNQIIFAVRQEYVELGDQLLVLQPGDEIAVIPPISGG
# UniProt P40692: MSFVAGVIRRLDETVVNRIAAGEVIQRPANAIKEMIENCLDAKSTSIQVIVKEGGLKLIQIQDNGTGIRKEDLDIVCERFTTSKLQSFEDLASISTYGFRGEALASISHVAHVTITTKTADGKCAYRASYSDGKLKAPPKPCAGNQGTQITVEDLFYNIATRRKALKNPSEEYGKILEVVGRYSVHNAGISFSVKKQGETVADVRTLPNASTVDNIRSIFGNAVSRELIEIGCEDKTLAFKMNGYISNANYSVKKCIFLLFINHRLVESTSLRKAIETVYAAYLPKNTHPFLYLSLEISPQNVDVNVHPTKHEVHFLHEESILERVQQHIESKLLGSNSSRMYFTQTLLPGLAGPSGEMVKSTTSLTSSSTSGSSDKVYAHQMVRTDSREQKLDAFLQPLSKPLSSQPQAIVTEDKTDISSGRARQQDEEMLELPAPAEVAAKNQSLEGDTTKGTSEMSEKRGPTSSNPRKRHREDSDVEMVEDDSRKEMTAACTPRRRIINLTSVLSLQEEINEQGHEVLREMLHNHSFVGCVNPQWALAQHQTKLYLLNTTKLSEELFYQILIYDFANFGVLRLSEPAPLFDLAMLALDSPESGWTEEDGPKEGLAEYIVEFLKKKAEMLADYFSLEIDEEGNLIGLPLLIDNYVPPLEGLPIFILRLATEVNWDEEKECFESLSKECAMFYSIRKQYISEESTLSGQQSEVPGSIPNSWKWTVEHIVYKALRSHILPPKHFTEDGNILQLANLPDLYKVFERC
# UniProt Q8N4V1: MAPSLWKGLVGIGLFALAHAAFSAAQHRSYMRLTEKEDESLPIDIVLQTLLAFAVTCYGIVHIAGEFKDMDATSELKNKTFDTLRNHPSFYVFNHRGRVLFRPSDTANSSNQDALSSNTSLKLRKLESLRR
# UniProt Q99583: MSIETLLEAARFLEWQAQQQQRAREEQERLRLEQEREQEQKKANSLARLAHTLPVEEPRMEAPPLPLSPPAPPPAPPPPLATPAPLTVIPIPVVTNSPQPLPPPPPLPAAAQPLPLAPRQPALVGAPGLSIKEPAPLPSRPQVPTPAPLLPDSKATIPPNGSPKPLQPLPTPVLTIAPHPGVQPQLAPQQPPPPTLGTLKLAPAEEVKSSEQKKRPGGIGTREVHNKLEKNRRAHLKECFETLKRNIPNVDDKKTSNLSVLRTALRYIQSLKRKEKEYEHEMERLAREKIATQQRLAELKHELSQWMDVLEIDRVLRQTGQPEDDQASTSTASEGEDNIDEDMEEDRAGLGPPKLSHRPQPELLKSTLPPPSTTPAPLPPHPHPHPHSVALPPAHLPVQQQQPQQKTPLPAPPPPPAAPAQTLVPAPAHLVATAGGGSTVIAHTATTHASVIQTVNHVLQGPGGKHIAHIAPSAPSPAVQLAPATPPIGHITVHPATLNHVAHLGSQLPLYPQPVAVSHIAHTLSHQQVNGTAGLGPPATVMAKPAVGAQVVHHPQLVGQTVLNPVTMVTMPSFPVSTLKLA
# The list shows a part of the results.
# What was measured:
# Experiment in all cases: log2 fold change, soluble protein after heating vs DMSO (PISA); higher = thermal stabilisation; K562 cells, 10 uM, 30 min; active = over 0.2 and 3.5 SD of the protein, either way, in both replicates (recomputed)
# [1] = compound: CC1=CC=C(C=C1)SC2=C3C=C(SC3=CN=C2)C(=O)N
# How it was run: (§1)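 For each measurement, 10 μM compound was applied for 30 min to K562 cells at 2×10^6 cells/mL. Aliquots were heated for 3 min across 48°C-58°C, pooled, and extracted in PBS with 0.5% NP-40 at 4°C; the supernatant after 21,000xg for 90 min was soluble protein. This was quantified by TMTpro 16plex LC-MS/MS with channel sums equalised, and thermal stability was reported relative to control samples from duplicates, on a log2 fold-change scale.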
# [2] = compound: CC1=NC(=CC=C1)C2=C(N=C(N2)C(C)(C)C)C3=CC4=NC=CN=C4C=C3
# How it was run: as §1
# vemurafenib = compound: CCCS(=O)(=O)Nc1ccc(F)c(C(=O)c2c[nH]c3ncc(-c4ccc(Cl)cc4)cc23)c1F [vemurafenib]
# How it was run: as §1
# [3] = compound: CCCS(=O)(=O)Nc1ccc(F)c(C(=O)c2c[nH]c3ncc(Cl)cc23)c1F
# How it was run: as §1
# [4] = compound: CCCc1cc(C)[nH]c(=O)c1CNC(=O)c1cc(-c2ccnc(N3CCN(C)CC3)c2)cc2c1cnn2C(C)C
# How it was run: as §1
# givinostat = compound: CCN(CC)Cc1ccc2cc(COC(=O)Nc3ccc(C(=O)NO)cc3)ccc2c1 [givinostat]
# How it was run: as §1
# barasertib = compound: CCN(CCCOc1ccc2c(Nc3cc(CC(=O)Nc4cccc(F)c4)[nH]n3)ncnc2c1)CCOP(=O)(O)O [barasertib]
# How it was run: as §1
# Nexturastat A = compound: CCCCN(Cc1ccc(C(=O)NO)cc1)C(=O)Nc1ccccc1 [Nexturastat A]
# How it was run: as §1
# [5] = compound: CC1=C(C=C(C=C1)NC(=O)C2=CC(=CC=C2)C(C)(C)C#N)NC3=CC4=C(C=C3)N=CN(C4=O)C
# How it was run: as §1
# [6] = compound: CC1=C(C=C(C=C1)NC(=O)C2=CC(=CC=C2)N(C)C)NC(=O)C3=CC=C(C=C3)O
# How it was run: as §1
Target,log2 fold change [1],log2 fold change [2],log2 fold change (vemurafenib),log2 fold change [3],log2 fold change [4],log2 fold change (givinostat),log2 fold change (barasertib),log2 fold change (Nexturastat A),log2 fold change [5],log2 fold change [6]
MOB3B (UniProt Q86TA1),inactive: -0.147,inactive: -0.033,inactive: 0.137,inactive: -0.272,inactive: 0.039,inactive: 0.174,inactive: 0.018,,,
MIER2 (UniProt Q8N344),,,inactive: -0.064,,,inactive: -0.055,,inactive: -0.073,,
MID1IP1 (UniProt Q9NPA3),inactive: -0.012,inactive: -0.189,inactive: 0.15,inactive: -0.027,inactive: 0.181,inactive: 0.025,inactive: 0.038,inactive: -0.103,inactive: 0.064,inactive: -0.121
MLST8 (UniProt Q9BVC4),inactive: 0.094,inactive: -0.079,inactive: 0.009,inactive: 0.031,inactive: -0.035,inactive: -0.058,inactive: 0.038,inactive: 0.001,inactive: 0.118,
MRPL57 (UniProt Q9BQC6),inactive: -0.01,,inactive: -0.098,inactive: -0.08,inactive: 0.082,inactive: 0.16,inactive: -0.109,inactive: 0.19,inactive: 0.089,
MICA (UniProt Q29983),inactive: -0.004,,inactive: 0.013,inactive: -0.035,,inactive: 0.059,inactive: -0.177,,inactive: -0.129,inactive: 0.1
MMAA (UniProt Q8IVH4),inactive: 0.16,,,inactive: -0.198,,inactive: 0.061,,inactive: -0.051,inactive: -0.037,
MMTAG2 (UniProt Q9BU76),inactive: -0.056,inactive: -0.033,inactive: -0.026,inactive: -0.015,inactive: 0.313,inactive: 0.065,inactive: -0.137,,inactive: 0.048,inactive: 0.021
MORC2 (UniProt Q9Y6X9),inactive: -0.059,inactive: 0.047,,inactive: 0.208,inactive: 0.231,inactive: 0.026,inactive: -0.002,inactive: -0.046,,
MME (UniProt P08473),,,inactive: 0.077,,inactive: 0.012,inactive: 0.102,inactive: 0.076,,,
MOCS2 (UniProt O96033),,,,,,inactive: -0.032,,,inactive: -0.128,
MLH1 (UniProt P40692),inactive: 0.023,,,inactive: 0.276,active: 0.584,,inactive: 0.11,inactive: -0.014,,
MMGT1 (UniProt Q8N4V1),inactive: 0.029,inactive: 0.01,inactive: -0.063,inactive: 0.016,,inactive: -0.112,inactive: 0.051,inactive: -0.186,inactive: 0.011,inactive: -0.017
MNT (UniProt Q99583),inactive: 0.181,inactive: -0.04,inactive: 0.105,inactive: 0.105,inactive: 0.066,,inactive: -0.056,inactive: -0.188,inactive: 0.02,inactive: -0.038
MRPL42 (UniProt Q9Y6G3),inactive: -0.034,inactive: -0.014,inactive: -0.108,inactive: -0.09,inactive: -0.005,,inactive: -0.1,inactive: 0.341,inactive: 0.095,inactive: 0.012
MRAS (UniProt O14807),,inactive: 0.075,,,inactive: -0.011,inactive: 0.092,inactive: -0.046,,,
"MICB, A0A140T979",inactive: 0.023,inactive: 0.038,inactive: -0.034,inactive: -0.032,inactive: -0.079,inactive: -0.005,inactive: 0.045,inactive: -0.101,,inactive: -0.037

# Looked up above:
# Under log2 fold change [1], MID1IP1 (UniProt Q9NPA3) is listed with inactive: -0.012
# Under log2 fold change [5], MICA (UniProt Q29983) is listed with inactive: -0.129
